Drawing on PubChem BioAssay AID445 (National Center for Advancing Translational Sciences (NCATS), 2006), this text covers AC50 for 18 molecules.

One may read the AC50 as the concentration giving half of the maximal activity seen.

Some of the results follow. Further columns of the screen follow, without active or inactive calls. The list favours compounds with an active or inconclusive main result. The note in brackets gives the kind of curve behind each potency; many fits are weak.

The assay is described as follows: IkB Signaling. The note with it: ABC-DLBCL IkBa-CBG/CBR dual luciferase ratio (green luciferase fused to IkBa over red control in OCI-Ly3 lymphoma cells), 4 h; measured here: control luc red channel unless noted. In short, it runs like this:
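Luminescence ratio of IκBα-fused green versus native red beetle luciferase in OCI-Ly3 cells, 4 h post-doxycycline with compound; red signal alone, scaled from basal (0%) to zero light (-100%), flagged nonspecific or cytotoxic effects.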
Regarding `CCC12CN3CC(CC)(CN(C1)C3c1ccc(OCc3ccccc3)cc1)C2=O` (stereo not drawn), the AC50 was 7.94 µM [falling, partial curve].
Turning to `O=S(=O)(c1cccs1)N1CCC(Cc2ccccc2)CC1`, the AC50 is 15.8 µM [falling, partial curve].
Turning to `O=C(Cn1nnc2sc3c(c2c1=O)CCCC3)Nc1ccc(F)c(Cl)c1`, the AC50 was 5.01 µM [falling, partial curve].
In the case of `COc1cccc(NC(CNS(=O)(=O)c2ccc(C)cc2)c2ccccc2)c1` (stereo not drawn), the AC50 was 15.8 µM [falling, partial curve].
The same measure for `CCN1C(=O)c2ccccc2Sc2ccc(NC(=O)c3ccc(C)c(F)c3)cc21`: 12.6 µM [falling, partial curve].
In the case of `O=C1/C(=C/Nc2ccc3c(c2)OCO3)CCc2ccccc21`, the AC50 is 7.94 µM [falling, partial curve].
With `CCCS(=O)(=O)NCCc1csc2nc(-c3ccc(OC)cc3)nn12`, the AC50 is 3.98 µM [rising, partial curve].
As to `Cc1cc(-c2ccc(C)c(S(=O)(=O)NCc3ccc(Cl)cc3)c2)on1`, the AC50 was 20 µM [falling, partial curve].
Take `N#Cc1ccccc1NC(=O)CSc1nnc(-c2ccccc2)n1-c1ccccc1`: the AC50 is 39.8 µM [falling, single point].
For `CCc1c(C)nc2nncn2c1Nc1ccc(C)c(F)c1`, the AC50 was 25.1 µM [falling, partial curve, poor fit].
For the molecule `COc1ccc(-c2cc(C(=O)N3CC4(C)CC3CC(C)(C)C4)no2)cc1OC` (stereo not drawn), the half-maximal activity concentration (AC50) was 5.01 µM [falling, partial curve].
With `COc1ccccc1N(CC(=O)NCCSCc1ccc(Cl)cc1)S(C)(=O)=O`, the AC50 was 39.8 µM [falling, single point].
The same measure for `COc1cccc(CNC(=O)c2c(O)nc3ccccn3c2=O)c1`: 39.8 µM [falling, single point]; for `CCOC(=O)CN1C(=O)C(C)(C)Oc2ccc(C(=O)Nc3ccccc3)cc21`: 25.1 µM [falling, partial curve].
As to `CCOc1ccc(N2CC(c3nc4ccccc4n3CC(C)C)CC2=O)cc1` (stereo not drawn), the AC50 was 12.6 µM [falling, partial curve].
Turning to `COc1cc(-c2noc(-c3ccc(NCCc4ccccc4)c([N+](=O)[O-])c3)n2)cc(OC)c1OC`, the AC50 was 7.94 µM [falling, partial curve].
With `N#CC(C#N)=c1ccc2c(c1)NC1(CCCCC1)N=2` the figure was 3.16 µM [rising, full curve] [measured here: IkB-luc green channel]; with `Cc1ccc(C)c(N2CCN(C(=O)c3ccc4c(Cl)c5c(nc4c3)CCCC5)CC2)c1`, 25.1 µM [falling, partial curve].
